Results: patent US8623326B2 (University of Western Ontario, priority 2008, dated 2014)
Some peptides are written in HELM: one residue between dots, names in brackets for other building blocks, links after the first $.

Assay: general procedure: Fmoc solid-phase peptide synthesis; Fmoc protected rink amide MBHA resin (loading 0.27 or 0.47 meq/g); HBTU/DIPEA
Settings: whole synthesis

**Q.** Which results are given for “PEPTIDE1{G.S.[Dpr].F.L.[am]}|PEPTIDE2{[FHex6]}$PEPTIDE1,PEPTIDE2,3:R3-1:R2$$$V2.0”?
**A.** isolated mass: 3.4 mg; isolated yield (overall, scale of the general procedure 1 mmol): 9%; final purity (method not given) (scale of the general procedure 1 mmol): 97%
